In patent US20230399416A1 (MIRIMGENE, published 2023):
Results are given in words; binding and its absence hold for the method and conditions named. Some binding calls cover weakened binding; strength is not graded here.

Assays:
[1] = target: T1, WARS1 (SEQ ID NO 26) (Homo sapiens (Human)) (UniProt P23381); experiment: summary of the examples (SPR, ELISA, immunoblot)
T1 sequence: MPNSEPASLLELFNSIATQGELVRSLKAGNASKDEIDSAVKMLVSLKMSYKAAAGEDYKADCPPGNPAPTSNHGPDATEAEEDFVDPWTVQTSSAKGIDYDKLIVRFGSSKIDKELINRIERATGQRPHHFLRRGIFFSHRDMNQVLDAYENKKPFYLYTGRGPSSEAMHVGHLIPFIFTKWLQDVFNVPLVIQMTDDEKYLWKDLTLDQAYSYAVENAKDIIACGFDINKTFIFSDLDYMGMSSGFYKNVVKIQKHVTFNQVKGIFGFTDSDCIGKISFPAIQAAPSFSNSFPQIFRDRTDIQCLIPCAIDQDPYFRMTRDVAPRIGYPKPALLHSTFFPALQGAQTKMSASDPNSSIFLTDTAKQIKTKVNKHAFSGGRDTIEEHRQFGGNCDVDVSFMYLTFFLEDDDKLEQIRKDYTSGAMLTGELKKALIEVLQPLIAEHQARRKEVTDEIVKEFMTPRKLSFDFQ

[2] = target: T2, human WARS1 recombinant protein (human, UniProt P23381 1-471, limits assumed); experiment: sandwich ELISA (GKB101 coated, recombinant WARS1 titrated) and SPR
T2 construct: In the immunoblot the endogenous WARS1 of THP-1 human monocytes was also detected; also called human recombinant protein; tryptophanyl-tRNA synthetase 1, cytoplasmic
T2 sequence (looked up): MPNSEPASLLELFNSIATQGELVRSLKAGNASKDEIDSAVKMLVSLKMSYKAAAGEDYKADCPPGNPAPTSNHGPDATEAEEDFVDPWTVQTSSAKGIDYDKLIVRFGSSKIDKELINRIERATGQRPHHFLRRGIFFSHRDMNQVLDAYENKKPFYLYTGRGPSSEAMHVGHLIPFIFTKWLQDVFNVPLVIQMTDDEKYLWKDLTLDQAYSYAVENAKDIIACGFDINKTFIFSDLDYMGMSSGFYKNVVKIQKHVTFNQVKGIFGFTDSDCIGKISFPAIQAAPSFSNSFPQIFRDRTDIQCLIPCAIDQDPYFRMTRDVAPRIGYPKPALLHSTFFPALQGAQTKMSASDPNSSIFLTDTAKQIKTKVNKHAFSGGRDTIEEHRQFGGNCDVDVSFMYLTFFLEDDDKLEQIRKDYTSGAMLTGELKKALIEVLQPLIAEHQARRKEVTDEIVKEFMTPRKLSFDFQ

[3] = target: T3, mouse WARS1 recombinant protein (mouse, UniProt P32921 1-481, limits assumed); experiment: immunoblot, LPS-stimulated J774.1A mouse macrophages and mouse recombinant WARS1, 1 µg/mL GKB101
T3 construct: In the immunoblot the endogenous WARS1 of J774.1A mouse macrophages was also detected; also called mouse recombinant protein
T3 sequence (looked up): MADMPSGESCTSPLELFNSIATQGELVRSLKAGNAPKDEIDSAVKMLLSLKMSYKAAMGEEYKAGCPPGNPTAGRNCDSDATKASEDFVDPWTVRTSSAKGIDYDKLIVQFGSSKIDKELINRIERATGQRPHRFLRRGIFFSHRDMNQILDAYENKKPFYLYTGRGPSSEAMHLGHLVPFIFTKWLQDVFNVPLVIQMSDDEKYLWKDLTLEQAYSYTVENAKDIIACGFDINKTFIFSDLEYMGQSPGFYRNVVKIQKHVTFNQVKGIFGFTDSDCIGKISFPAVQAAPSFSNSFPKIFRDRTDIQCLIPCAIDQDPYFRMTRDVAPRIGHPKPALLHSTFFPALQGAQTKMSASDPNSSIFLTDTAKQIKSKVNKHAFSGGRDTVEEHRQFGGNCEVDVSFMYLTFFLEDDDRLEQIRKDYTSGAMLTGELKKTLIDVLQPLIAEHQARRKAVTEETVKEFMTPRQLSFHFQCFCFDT

[4] = target: T2, human WARS1 recombinant protein; experiment: immunoblot, LPS-stimulated THP-1 human monocytes and human recombinant WARS1, 1 µg/mL GKB101

Measured: binding

B1: GKB101 (antibody, IgG1, V domains shown)
VH: EVQLLESGGGLVQPGGSLRLSCAASGFTFSSYDMSWVRQAPGKGLEWVSAISSGGSSIYYADSVKGRFTISRDNSKNTLYLQMNSLRAEDTAVYYCARDVAWDMLGDFDYWGQGTLVTVSS
VL: QSVLTQPPSASGTPGQRVTISCTGSSSNIGSNYVYWYQQLPGTAPKLLIYANSHRPSGVPDRFSGSKSGTSASLAISGLRSEDEADYYCGAWDDSLSAYVFGGGTKLTVTV
notes: IgG1 made from the selected scFv with the constant regions of herceptin expression vectors, expressed in Expi293F cells; Joined as printed they may lack a few residues at the junctions (VL/CL, CH2/CH3) and at the C-terminus of CH3; also called WARS1-specific antibody; anti-WARS1 antibody
binds: all assays above
